Reference: PubChem BioAssay AID504786 (Drosophila RNAi Screening Center, 2011)

Test: 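Fly genes required for HIF-dependent transcription when hypoxia is mimicked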 (primary screen)
Cells: Drosophila S2 cells with a stable HIF luciferase reporter
Reagent: long dsRNA against Drosophila genes, about 0.2 µg dsRNA per well of a 384-well plate
Timing: three days of knock-down, then 20 h of DFO before reading
Treatment: desferrioxamine (DFO) at 100 µM, an iron chelator that mimics hypoxia, for 20 h
Read-out: 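HIF reporter luminescence in cells given 100 µM DFO for 20 h, using the mouse ldh-a hypoxia-response element, scored as per-plate z-scores; higher means greater loss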
Reading the numbers: z-score: higher = stronger loss of HIF reporter signal
The deposit covers about 21,000 reagents; this is an unselected part of those with a known target gene and a result. 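Primary screen; positive scores mean lost reporter signal, so the sign may be inverted from the usual convention.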 Reagents against one gene are numbered here. Names joined by + are all predicted targets of the reagent.

gene knocked down | reagent no. | z-score, replicate 1 | z-score, replicate 2 | z-score, replicate 3 | z-score, replicate 4
pasha | 1 | 0.1 | 0.4 | – | –
CG12715 | 1 | -0.2 | -0.4 | – | –
sNPF-R | 1 | -0.4 | -0.4 | – | –
CG2577 | 1 | -0.2 | 1 | – | –
brv3 | 1 | -0.4 | -0.5 | – | –
Idgf4 | 1 | -0.1 | -0.8 | – | –
CR16735 | 1 | -0.3 | -0.2 | – | –
Rap2l | 1 | 0.5 | 0.4 | – | –
CG34310 | 1 | 0.4 | 0.2 | – | –
CG13042 | 1 | -0.1 | -0.2 | – | –
Ent1 | 1 | -0.1 | -0.5 | – | –
CG43861 + CG12508 (retired record) | 1 | -0.3 | 0 | – | –
Alms1a | 1 | -0.2 | -0.4 | – | –
CG43996 | 1 | -0.3 | -0.2 | – | –
CG43996 | 2 | -0.3 | -0.5 | – | –
Rgl | 1 | -0.3 | -0.2 | – | –
tinc | 1 | 0 | 0.2 | – | –
tinc | 2 | 0.1 | 0 | – | –
tinc | 3 | 0.8 | 0.4 | – | –
tinc | 4 | -0.6 | -0.2 | – | –
Scgdelta | 1 | -0.3 | -0.5 | – | –
Gpxl | 1 | -0.2 | -0.1 | – | –
alpha-PheRS | 1 | 0.1 | 1.3 | – | –
RpL12 | 1 | 9.2 | 6.3 | – | –
eIF4E5 | 1 | 0.2 | 0 | – | –
f-cup | 1 | 0.3 | 0.6 | – | –
Ufc1 | 1 | -0.2 | -0.3 | – | –
CG6357 | 1 | -0.2 | -0.9 | – | –
OSCP1 | 1 | -0.4 | -0.2 | – | –
meep | 1 | 4.5 | 2.6 | – | –
Seipin | 1 | -0.2 | -0.5 | – | –
Wdr81 | 1 | -0.1 | -0.4 | – | –
CG34183 | 1 | 0 | 0.2 | – | –
Ag5r2 | 1 | -0.2 | -0.4 | – | –
Obp56b | 1 | -0.1 | -0.1 | – | –
Egfrap | 1 | -0.3 | -0.6 | – | –
Egfrap | 2 | -0.5 | -0.6 | – | –
CG13192 | 1 | -0.4 | -0.4 | – | –
MICU3 | 1 | -0.3 | -0.3 | – | –
MICU3 | 2 | -0.1 | -0.4 | – | –
CG7715 | 1 | -1 | -0.2 | – | –
Zfrp8 | 1 | -0.1 | 0 | – | –
Spt-I | 1 | -0.5 | -0.6 | – | –
CG3163 | 1 | -0.2 | 0.2 | – | –
Sprn | 1 | -0.3 | -0.3 | – | –
HERC2 | 1 | -0.3 | -0.1 | – | –
CG6707 | 1 | -0.1 | -0.3 | – | –
Oatp58Dc | 1 | -0.4 | -0.2 | – | –
Wbp2 | 1 | 1.7 | 1.6 | – | –
CG6276 | 1 | -0.1 | -0.1 | – | –
CG18577 | 1 | -0.1 | 0.5 | – | –
dpa | 1 | -0.1 | -0.2 | – | –
crim | 1 | -0.3 | -0.4 | – | –
BCAS2 | 1 | -0.3 | 0.3 | – | –
SmydA-2 | 1 | -0.2 | -0.2 | – | –
Atg18b | 1 | -0.1 | 0.2 | – | –
CG9588 | 1 | -0.4 | -0.5 | – | –
raw | 1 | 0.9 | 0.2 | – | –
raw | 2 | 0.1 | -0.1 | – | –
CG33689 | 1 | -0.1 | 0 | – | –
CG9483 | 1 | -0.4 | -0.2 | – | –
CG7943 | 1 | -0.3 | -0.2 | – | –
CG17364 | 1 | -0.2 | 0.2 | – | –
CG17364 | 2 | -0.1 | -0.2 | 0.1 | -0.2
Blos1 | 1 | -0.3 | -0.1 | – | –
CG34038 | 1 | -0.2 | -0.1 | – | –
mAChR-A | 1 | -0.2 | -0.2 | – | –
mus301 | 1 | 0.3 | 0.3 | – | –
CG6628 | 1 | -0.2 | -0.3 | – | –
srw | 1 | -0.3 | -0.5 | – | –
Ilp7 | 1 | -0.3 | 0 | – | –
CG32075 | 1 | -0.1 | -0.2 | – | –
sncRNA:430e + His2A:CG33859 + His2A:CG33817 + 37 more | 1 | 1.6 | 1.5 | – | –
CG5021 | 1 | -0.3 | -0.2 | – | –
CG11192 | 1 | 0 | 0.3 | – | –
CG42335 | 1 | -0.2 | 0.1 | – | –
CG42335 | 2 | -0.1 | -0.2 | – | –
Egm | 1 | -0.3 | -0.8 | – | –
Gbeta76C | 1 | -0.2 | 0.3 | – | –
mle | 1 | 0 | -0.1 | – | –
CG13581 | 1 | -0.2 | -0.3 | – | –
CG2201 | 1 | 0.2 | 0.4 | – | –
Lip4 | 1 | -0.2 | 0.2 | – | –

Quoted from above for reference:
gene knocked down | reagent no. | z-score, replicate 1 | z-score, replicate 2 | z-score, replicate 3 | z-score, replicate 4
CG9588 | 1 | -0.4 | -0.5 | – | –
raw | 1 | 0.9 | 0.2 | – | –
raw | 2 | 0.1 | -0.1 | – | –
CG33689 | 1 | -0.1 | 0 | – | –
CG9483 | 1 | -0.4 | -0.2 | – | –
CG7943 | 1 | -0.3 | -0.2 | – | –
